Results as given in patent US20100234238A1, “METHOD FOR PROFILING KINASE INHIBITORS” (Janssen Pharmaceutica N V, priority 2006, published 2010).
This continues a long series; more values of the same kind are listed elsewhere.

Test system: tyrosine kinase activity in lysates prepared from cell lines
Assay: PAMCHIP96 tyrosine peptide array profiling of lysates of 27 cell lines in absence or presence of MTKI
Type: biochemical
Settings: 5 μM
Text: PAMGENE technology using the tyrosine peptide PAMCHIP96 allows the kinetic detection of the phosphorylation of 144 tyrosine peptides spotted onto a 3-dimensional porous well of a 96-well plate (www.pamgene.com). This technology can be used to measure the activity of purified kinases and the effects of kinase inhibitors thereon. Phosphotyrosine peptides are detected using a mix of fluorescently labeled anti-phosphotyrosine antibodies. Phosphorylation of peptides can be followed in real time due to the possibility of removing the reaction mix for a few seconds during the assay by a pumping mechanism to allow CCD camera detection of phosphopeptides bound to the fluorescent antibody. These consecutive datapoints (quantified spot images) generate a kinetic curve for each individual peptide, and allow for the calculation of initial velocities and endpoints associated with each individual peptide.
Cells cultured in appropriate medium in T175 flasks, treated with compound if necessary, are harvested at 70-90% confluency.
Media is removed, cells are washed with 10 ml ice cold PBS containing 0.1 mM NaVO4 and lysed in 1 ml of M-PER buffer (PIERCE) containing phosphatase and protease inhibitors (HALT, PIERCE). Cells are collected by scraping, and centrifuged for 10 minutes at 12 000×g. Supernatant lysates are filtered through a 0.2 micrometer filter (Anotop 0.2 μm anopore filter; Whatmann). Lysates are flash frozen in liquid nitrogen and stored at −80C.
Just prior to the PAMCHIP experiment, total protein content is quantitated in the lysates and lysates are diluted to 1 mg/ml in a total volume of 200 μl, with M-PER phosphatase and protease inhibitors (HALT, PIERCE). 10 μg of total lysate (corresponding to 10 μl) will be used per well on the PAMCHIP96.
To all 200 μl lysates 10 units of benzonase (Novagen) is added and lysates are further incubated for 30 min on ice and next centrifuged for 10 minutes at 12 000×g. The supernatant is then 1:1 diluted with compound or DMSO diluted to the appropriate concentration in water, and lysates are further incubated exactly 60 min on ice. Meanwhile, a PAMCHIP96 tyrosine peptide chip (PAMGENE) is blocked with 2% BSA (filtered through a 0.2 μm anopore filter; Whatmann) using the standard setting of a PAMSTATION96 (PAMGENE).
The composition of the kinase buffer is as follows: 1×ABL buffer (NEB), 0.5 mg/ml BSA (from 10 mg/ml NEB stock), 100 μM ATP (dissolved and diluted in 1×ABL buffer), 5 μg/ml PY20-FITC (ExAlpha Biologicals, azide-free preparation). A twofold concentrated kinase buffer is prepared chilled on ice, DMSO or compound is added as appropriate, and the solution is added 1:1 to the (compound treated) ice cold lysates, and immediately applied to a tyrosine peptide PAMCHIP96. The assay is run on a PAMSTATION96 according to standard procedures: after loading of the plate, solution is pumped once onto the wells, a first exposure is read (150 mSec) and then a kinetic reading program (reading every 5 min for 150 mSec) is run for 60 min. Lysates are run in 6 technical replicates for each condition; replicates are always applied horizontally next to each other to avoid vertical strip effects of the chip.
The data (spot images) are further quantified and linked to the peptide identities using EVOLVE PAMGRID software (PAMGENE). The quantified data are then fit to a curve using CurveFitHT software (PAMGENE) using the Vinip2 curve fitting algorithm, applied on the first 30 min of the assay; the initial velocity is derived at the first kinetic time point read. All subsequent data analyses were done on initial velocities (Vini) using the software packages Omniviz and R (Ihaka, R. and Gentlemen, R. (1996) R: a language for data analysis and graphics. J. Comput. Graph. Stat., 5, 299-314).
After replacing the Vini's lower than 0.1 by 0.1, all Vini's were log 2-transformed to approach normality.

With `COc1cc2ncnc3c2cc1OCCCCCN(C)Cc1ccc(Br)cc1N3` [MTKI, 4,6-ethanediylidenepyrimido[4,5-b][6,1,12]benzoxadiazacyclopentadecine, 17-bromo-8,9,10,11,12,13,14,19-octahydro-20-methoxy-13-methyl-] the “ratio of initial velocity of peptide phosphorylation” value (shortened to “ratio”) (MCF7 lysate, TYRO3_679_691_Y686) was 0.98, the “ratio” value (MDA231PAR lysate, CDK7_157_169_S164) was 1.13 and the “ratio” value (MDA231PAR lysate, CREB1_122_134_Y134/S133) was 1.04. The “ratio” value (MDA231PAR lysate, DDR2_733_745_Y740) was 1.11, the “ratio” value (MDA231PAR lysate, ENOG_37_49_Y43) was 0.93 and the “ratio” value (MDA231PAR lysate, GSK3B_209_221_Y216) was 0.98. The “ratio” value (MDA231PAR lysate, MK10_216_228_T221/Y223) was 0.83, the “ratio” value (MDA231PAR lysate, NCF1_313_325_S315/S320) was 1.03 and the “ratio” value (MDA231PAR lysate, NPT2_501_513_T508) was 1.09. For the same compound, the “ratio” value (MDA231PAR lysate, PECA1_706_718_Y713) was 0.86, the “ratio” value (MDA231PAR lysate, PLCG1_764_776_Y771) was 0.93 and the “ratio” value (MDA231PAR lysate, PRRX2_202_214_Y214) was 0.97. For the same compound, the “ratio” value (MDA231PAR lysate, RASA1_453_465_Y460) was 0.80, the “ratio” value (MDA231PAR lysate, STAT2_683_695_Y690) was 1.00 and the “ratio” value (MDA231PAR lysate, SYN1_2_14_S9) was 0.92. The “ratio” value (MDA231PAR lysate, TYRO3_679_691_Y686) was 0.99, the “ratio” value (MDAMB435s lysate, CDK7_157_169_S164) was 1.08 and the “ratio” value (MDAMB435s lysate, CREB1_122_134_Y134/S133) was 1.09. For the same compound, the “ratio” value (MDAMB435s lysate, DDR2_733_745_Y740) was 1.07, the “ratio” value (MDAMB435s lysate, ENOG_37_49_Y43) was 0.84 and the “ratio” value (MDAMB435s lysate, GSK3B_209_221_Y216) was 1.14. The “ratio” value (MDAMB435s lysate, MK10_216_228_T221/Y223) was 1.29, the “ratio” value (MDAMB435s lysate, NCF1_313_325_S315/S320) was 1.09 and the “ratio” value (MDAMB435s lysate, NPT2_501_513_T508) was 1.05. For the same compound, the “ratio” value (MDAMB435s lysate, PECA1_706_718_Y713) was 0.76, the “ratio” value (MDAMB435s lysate, PLCG1_764_776_Y771) was 0.98 and the “ratio” value (MDAMB435s lysate, PRRX2_202_214_Y214) was 1.03. The “ratio” value (MDAMB435s lysate, RASA1_453_465_Y460) was 0.88, the “ratio” value (MDAMB435s lysate, STAT2_683_695_Y690) was 1.09 and the “ratio” value (MDAMB435s lysate, SYN1_2_14_S9) was 1.12. For the same compound, the “ratio” value (MDAMB435s lysate, TYRO3_679_691_Y686) was 0.93, the “ratio” value (MKN45 lysate, CDK7_157_169_S164) was 0.90 and the “ratio” value (MKN45 lysate, CREB1_122_134_Y134/S133) was 0.94. The “ratio” value (MKN45 lysate, DDR2_733_745_Y740) was 0.94, the “ratio” value (MKN45 lysate, ENOG_37_49_Y43) was 0.91 and the “ratio” value (MKN45 lysate, GSK3B_209_221_Y216) was 0.99. For the same compound, the “ratio” value (MKN45 lysate, MK10_216_228_T221/Y223) was 0.95, the “ratio” value (MKN45 lysate, NCF1_313_325_S315/S320) was 0.95 and the “ratio” value (MKN45 lysate, NPT2_501_513_T508) was 0.97. The “ratio” value (MKN45 lysate, PECA1_706_718_Y713) was 0.83, the “ratio” value (MKN45 lysate, PGFRB_768_780_Y771/Y775/Y778) was 1.04 and the “ratio” value (MKN45 lysate, PLCG1_764_776_Y771) was 0.92. The “ratio” value (MKN45 lysate, PRRX2_202_214_Y214) was 1.04, the “ratio” value (MKN45 lysate, RASA1_453_465_Y460) was 0.92 and the “ratio” value (MKN45 lysate, STAT2_683_695_Y690) was 0.97. The “ratio” value (MKN45 lysate, SYN1_2_14_S9) was 0.94, the “ratio” value (MKN45 lysate, TYRO3_679_691_Y686) was 1.00 and the “ratio” value (MOLT4 lysate, CDK7_157_169_S164) was 0.91. For the same compound, the “ratio” value (MOLT4 lysate, CREB1_122_134_Y134/S133) was 1.02, the “ratio” value (MOLT4 lysate, DDR2_733_745_Y740) was 0.78 and the “ratio” value (MOLT4 lysate, ENOG_37_49_Y43) was 0.77. For the same compound, the “ratio” value (MOLT4 lysate, GSK3B_209_221_Y216) was 1.19, the “ratio” value (MOLT4 lysate, MK10_216_228_T221/Y223) was 0.85 and the “ratio” value (MOLT4 lysate, NCF1_313_325_S315/S320) was 1.18. For the same compound, the “ratio” value (MOLT4 lysate, NPT2_501_513_T508) was 0.96, the “ratio” value (MOLT4 lysate, PECA1_706_718_Y713) was 0.77 and the “ratio” value (MOLT4 lysate, PGFRB_768_780_Y771/Y775/Y778) was 0.17. The “ratio” value (MOLT4 lysate, PLCG1_764_776_Y771) was 0.80, the “ratio” value (MOLT4 lysate, PRRX2_202_214_Y214) was 0.72 and the “ratio” value (MOLT4 lysate, RASA1_453_465_Y460) was 0.79. The “ratio” value (MOLT4 lysate, STAT2_683_695_Y690) was 0.95, the “ratio” value (MOLT4 lysate, SYN1_2_14_S9) was 1.22 and the “ratio” value (MOLT4 lysate, TYRO3_679_691_Y686) was 0.97. For the same compound, the “ratio” value (NCI-N87 lysate, GSK3B_209_221_Y216) was 0.83, the “ratio” value (RSJSA1 lysate, CDK7_157_169_S164) was 0.81 and the “ratio” value (RSJSA1 lysate, CREB1_122_134_Y134/S133) was 0.99. For the same compound, the “ratio” value (RSJSA1 lysate, DDR2_733_745_Y740) was 1.02, the “ratio” value (RSJSA1 lysate, ENOG_37_49_Y43) was 0.95 and the “ratio” value (RSJSA1 lysate, GSK3B_209_221_Y216) was 1.11. The “ratio” value (RSJSA1 lysate, MK10_216_228_T221/Y223) was 0.96, the “ratio” value (RSJSA1 lysate, NCF1_313_325_S315/S320) was 1.00 and the “ratio” value (RSJSA1 lysate, NPT2_501_513_T508) was 0.96. For the same compound, the “ratio” value (RSJSA1 lysate, PECA1_706_718_Y713) was 0.85, the “ratio” value (RSJSA1 lysate, PLCG1_764_776_Y771) was 0.90 and the “ratio” value (RSJSA1 lysate, PRRX2_202_214_Y214) was 1.03. For the same compound, the “ratio” value (RSJSA1 lysate, RASA1_453_465_Y460) was 1.17, the “ratio” value (RSJSA1 lysate, STAT2_683_695_Y690) was 1.03 and the “ratio” value (RSJSA1 lysate, SYN1_2_14_S9) was 1.05. For the same compound, the “ratio” value (RSJSA1 lysate, TYRO3_679_691_Y686) was 1.22.
